# In PMC3472974, “The Bite of the Honeybee: 2-Heptanone Secreted from Honeybee Mandibles during a Bite Acts as a Local Anaesthetic in Insects and Mammals” (PLoS ONE, 2012):
# Assays:
# [1] = test system: isolated rat sciatic nerve
# Text: The ex vivo studies used both male and female rats weighing between 230 and 250 g. Animals were sacrificed using light anaesthesia with CO2 and cervical dislocation. The sciatic nerve of the rat, consisting of 27,000 sciatic nerve fibres, was isolated in a three-chamber recording bath (Fig. 5b). The sciatic nerves were dissected from the spinal cord to the knee, immersed in oxygenated (O2, 100%) saline solution and cleaned. The composition of the saline was (in mmoles/L): 136 NaCl, 11 glucose, 4.7 KCl, 2.4 CaCl2, 1.1 MgCl2, 1 NaHCO3, 10 HEPES, pH = 7.2). All experiments were performed at a constant temperature, 26.0±1.0°C. […] The nCAP (Fig. 5a) was generated by stimulating (1 Hz) the part of the nerve in the stimulating chamber and was recorded in the recording chamber every second using standard electrophysiological methods. The nCAP was monitored throughout the experiment as an indication of the vitality of the nerve fibres in the recording bath. […] Then, recovery of the nCAP in normal stagnant saline was monitored for 24 h. […]
# For further data analysis, the amplitude of the nCAPs, estimated from baseline to peak (Fig. 5), were measured at a specific time (every 1.0 s, 1.0 min or 1.0 h) and were expressed as a percentage of the amplitude of the nCAP at t = 0 (which was considered to be 100%). […] Data were analyzed by one-way ANOVA and Bonferroni’s post hoc tests, when required. […]
# rat = conditions: oral rat; no reference given; cited from earlier work
smiles,measurement,setting,value
CCN(CC)CC(=O)Nc1c(C)cccc1C [lidocaine],neurotoxic action in 24 h monitoring of nerve vitality,[1],no neurotoxic action
same,acute LD50,rat,313 mg/kg
